In the supplement of paper PMC12819154, “High-throughput peptide-centric local stability assay extends protein–ligand identification to membrane proteins, tissues and bacteria” (Nature Structural & Molecular Biology, 2025):
The list shows a part of the results. Most entries show no effect beyond the scatter of the controls.

Amino acid sequences for entries named in this document (tags omitted). A change or cut given only in a name is not applied to a line headed by its entry.
UniProt Q91VN1: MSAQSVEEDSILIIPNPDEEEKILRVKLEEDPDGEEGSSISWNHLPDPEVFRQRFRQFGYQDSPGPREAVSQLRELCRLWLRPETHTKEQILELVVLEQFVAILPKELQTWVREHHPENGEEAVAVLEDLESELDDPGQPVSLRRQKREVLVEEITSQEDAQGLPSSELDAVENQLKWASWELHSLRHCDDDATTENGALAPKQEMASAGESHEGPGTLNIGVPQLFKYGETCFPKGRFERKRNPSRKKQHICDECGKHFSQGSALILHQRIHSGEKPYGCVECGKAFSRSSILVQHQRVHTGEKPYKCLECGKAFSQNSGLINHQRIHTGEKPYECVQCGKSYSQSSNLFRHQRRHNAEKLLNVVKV
UniProt Q91WT8: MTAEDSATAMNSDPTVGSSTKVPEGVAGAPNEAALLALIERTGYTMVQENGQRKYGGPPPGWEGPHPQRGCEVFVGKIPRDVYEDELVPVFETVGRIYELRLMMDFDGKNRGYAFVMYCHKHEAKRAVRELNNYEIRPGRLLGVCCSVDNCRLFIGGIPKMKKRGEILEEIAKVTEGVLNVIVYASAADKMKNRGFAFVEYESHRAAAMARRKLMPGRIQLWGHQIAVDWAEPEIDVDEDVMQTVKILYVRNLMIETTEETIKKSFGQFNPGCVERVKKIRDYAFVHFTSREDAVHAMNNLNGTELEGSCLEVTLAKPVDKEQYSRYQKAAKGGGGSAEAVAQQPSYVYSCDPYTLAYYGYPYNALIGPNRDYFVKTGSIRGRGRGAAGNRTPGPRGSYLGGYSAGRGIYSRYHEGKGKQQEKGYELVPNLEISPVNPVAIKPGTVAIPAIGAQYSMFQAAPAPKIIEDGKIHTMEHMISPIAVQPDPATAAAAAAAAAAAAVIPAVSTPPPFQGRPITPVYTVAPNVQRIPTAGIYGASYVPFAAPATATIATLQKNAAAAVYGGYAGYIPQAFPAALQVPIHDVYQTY
UniProt Q91ZF0: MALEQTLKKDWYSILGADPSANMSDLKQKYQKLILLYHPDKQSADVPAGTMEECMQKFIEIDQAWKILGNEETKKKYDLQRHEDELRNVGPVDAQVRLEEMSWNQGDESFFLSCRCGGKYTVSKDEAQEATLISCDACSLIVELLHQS
UniProt Q91W90: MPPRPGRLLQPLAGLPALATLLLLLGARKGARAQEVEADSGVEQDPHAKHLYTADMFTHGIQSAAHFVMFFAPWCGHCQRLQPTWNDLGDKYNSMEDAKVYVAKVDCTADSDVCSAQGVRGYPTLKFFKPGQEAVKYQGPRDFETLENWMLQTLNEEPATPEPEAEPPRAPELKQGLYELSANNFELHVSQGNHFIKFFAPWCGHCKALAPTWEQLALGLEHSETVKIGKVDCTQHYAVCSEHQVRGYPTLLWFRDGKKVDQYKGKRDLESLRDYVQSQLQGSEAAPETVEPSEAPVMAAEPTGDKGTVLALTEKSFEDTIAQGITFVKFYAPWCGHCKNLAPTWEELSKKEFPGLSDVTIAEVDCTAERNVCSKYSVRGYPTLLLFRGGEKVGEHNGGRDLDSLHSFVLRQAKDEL
UniProt Q8VI33, whole entry: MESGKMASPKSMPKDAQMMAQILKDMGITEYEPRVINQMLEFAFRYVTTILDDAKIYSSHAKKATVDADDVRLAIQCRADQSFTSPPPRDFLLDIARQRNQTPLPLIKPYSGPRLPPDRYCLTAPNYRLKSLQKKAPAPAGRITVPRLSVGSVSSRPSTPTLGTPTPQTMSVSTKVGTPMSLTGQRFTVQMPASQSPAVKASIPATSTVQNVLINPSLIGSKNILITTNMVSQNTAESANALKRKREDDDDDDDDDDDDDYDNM
UniProt Q91YN5: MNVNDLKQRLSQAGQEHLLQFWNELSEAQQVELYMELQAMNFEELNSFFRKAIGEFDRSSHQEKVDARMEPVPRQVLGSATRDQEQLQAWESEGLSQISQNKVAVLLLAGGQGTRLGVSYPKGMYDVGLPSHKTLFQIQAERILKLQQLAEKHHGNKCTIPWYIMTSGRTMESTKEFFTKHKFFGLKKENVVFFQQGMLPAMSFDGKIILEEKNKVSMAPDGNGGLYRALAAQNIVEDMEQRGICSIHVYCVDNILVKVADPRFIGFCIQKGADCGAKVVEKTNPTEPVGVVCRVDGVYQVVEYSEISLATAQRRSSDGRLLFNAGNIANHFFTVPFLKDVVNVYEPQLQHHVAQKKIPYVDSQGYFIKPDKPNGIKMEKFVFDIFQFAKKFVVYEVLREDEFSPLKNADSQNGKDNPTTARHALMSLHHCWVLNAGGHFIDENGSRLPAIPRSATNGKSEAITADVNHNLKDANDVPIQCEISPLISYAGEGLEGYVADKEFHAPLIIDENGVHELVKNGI
UniProt Q91YR5: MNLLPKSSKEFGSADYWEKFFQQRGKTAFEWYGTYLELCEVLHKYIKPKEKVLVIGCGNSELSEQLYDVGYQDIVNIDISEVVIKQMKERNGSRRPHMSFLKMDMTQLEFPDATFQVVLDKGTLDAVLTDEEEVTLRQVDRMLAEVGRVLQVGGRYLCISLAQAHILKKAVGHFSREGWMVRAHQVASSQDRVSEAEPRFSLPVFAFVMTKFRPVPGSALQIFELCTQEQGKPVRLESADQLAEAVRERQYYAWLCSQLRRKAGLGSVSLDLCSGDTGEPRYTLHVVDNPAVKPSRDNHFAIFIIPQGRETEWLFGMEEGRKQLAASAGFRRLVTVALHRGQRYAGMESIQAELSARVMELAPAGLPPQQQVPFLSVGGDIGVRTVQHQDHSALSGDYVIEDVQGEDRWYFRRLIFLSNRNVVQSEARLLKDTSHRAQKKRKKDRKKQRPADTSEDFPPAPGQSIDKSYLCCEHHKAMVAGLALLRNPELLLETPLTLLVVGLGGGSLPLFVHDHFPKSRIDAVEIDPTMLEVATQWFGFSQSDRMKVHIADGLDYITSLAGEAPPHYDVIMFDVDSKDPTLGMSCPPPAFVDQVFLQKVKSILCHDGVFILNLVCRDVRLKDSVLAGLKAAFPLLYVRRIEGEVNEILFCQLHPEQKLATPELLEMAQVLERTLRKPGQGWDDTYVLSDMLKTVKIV
UniProt Q91WG0: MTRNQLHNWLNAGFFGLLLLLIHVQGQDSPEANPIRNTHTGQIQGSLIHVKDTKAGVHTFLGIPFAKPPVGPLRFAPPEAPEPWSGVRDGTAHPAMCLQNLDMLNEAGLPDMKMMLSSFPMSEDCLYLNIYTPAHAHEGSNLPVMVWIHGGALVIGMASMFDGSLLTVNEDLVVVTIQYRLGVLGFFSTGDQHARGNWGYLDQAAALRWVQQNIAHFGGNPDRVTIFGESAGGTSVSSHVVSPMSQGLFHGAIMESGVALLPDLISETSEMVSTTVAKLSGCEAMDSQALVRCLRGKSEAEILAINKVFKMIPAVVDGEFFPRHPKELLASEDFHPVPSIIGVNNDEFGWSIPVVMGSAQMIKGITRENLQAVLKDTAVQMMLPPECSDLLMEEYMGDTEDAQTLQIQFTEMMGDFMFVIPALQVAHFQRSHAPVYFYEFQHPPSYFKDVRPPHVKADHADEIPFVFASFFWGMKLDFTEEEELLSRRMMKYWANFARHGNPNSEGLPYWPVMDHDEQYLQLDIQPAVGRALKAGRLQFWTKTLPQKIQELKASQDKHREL
UniProt Q91XT4: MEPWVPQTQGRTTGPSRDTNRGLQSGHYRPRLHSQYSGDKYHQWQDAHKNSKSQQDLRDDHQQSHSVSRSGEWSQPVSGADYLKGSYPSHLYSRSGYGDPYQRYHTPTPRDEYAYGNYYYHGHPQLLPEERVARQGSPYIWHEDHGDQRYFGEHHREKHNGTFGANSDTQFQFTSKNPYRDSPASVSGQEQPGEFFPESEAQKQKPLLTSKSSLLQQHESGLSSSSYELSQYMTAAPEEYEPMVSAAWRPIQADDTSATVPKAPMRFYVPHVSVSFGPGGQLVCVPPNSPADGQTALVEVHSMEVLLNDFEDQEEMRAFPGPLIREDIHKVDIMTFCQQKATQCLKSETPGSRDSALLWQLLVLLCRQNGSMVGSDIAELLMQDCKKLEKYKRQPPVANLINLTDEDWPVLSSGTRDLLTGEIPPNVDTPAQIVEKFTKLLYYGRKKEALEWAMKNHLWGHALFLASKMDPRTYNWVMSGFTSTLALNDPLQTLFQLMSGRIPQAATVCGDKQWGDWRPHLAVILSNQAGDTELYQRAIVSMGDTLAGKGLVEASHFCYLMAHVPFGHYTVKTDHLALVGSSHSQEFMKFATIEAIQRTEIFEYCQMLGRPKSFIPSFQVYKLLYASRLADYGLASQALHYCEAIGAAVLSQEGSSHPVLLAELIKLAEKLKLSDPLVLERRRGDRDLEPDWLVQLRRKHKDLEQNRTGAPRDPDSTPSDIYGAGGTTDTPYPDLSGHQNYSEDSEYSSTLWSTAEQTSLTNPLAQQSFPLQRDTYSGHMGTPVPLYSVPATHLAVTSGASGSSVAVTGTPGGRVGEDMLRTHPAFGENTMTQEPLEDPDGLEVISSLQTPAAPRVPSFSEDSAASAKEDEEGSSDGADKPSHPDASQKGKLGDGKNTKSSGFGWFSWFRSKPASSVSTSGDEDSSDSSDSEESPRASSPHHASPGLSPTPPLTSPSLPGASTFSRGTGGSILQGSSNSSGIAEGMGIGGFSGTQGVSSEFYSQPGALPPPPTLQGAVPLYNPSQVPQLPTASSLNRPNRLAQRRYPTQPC
UniProt Q91Y97: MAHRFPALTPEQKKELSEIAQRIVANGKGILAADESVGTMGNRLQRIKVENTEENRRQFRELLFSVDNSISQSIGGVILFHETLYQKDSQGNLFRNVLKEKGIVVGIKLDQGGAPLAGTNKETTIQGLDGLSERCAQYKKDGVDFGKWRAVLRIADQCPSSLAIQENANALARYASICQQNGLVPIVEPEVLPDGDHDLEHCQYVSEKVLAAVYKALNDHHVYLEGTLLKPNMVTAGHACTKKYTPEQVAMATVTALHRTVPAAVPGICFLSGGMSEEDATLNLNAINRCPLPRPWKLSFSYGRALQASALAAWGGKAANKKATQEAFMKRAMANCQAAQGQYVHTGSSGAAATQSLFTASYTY
UniProt Q8VHR5: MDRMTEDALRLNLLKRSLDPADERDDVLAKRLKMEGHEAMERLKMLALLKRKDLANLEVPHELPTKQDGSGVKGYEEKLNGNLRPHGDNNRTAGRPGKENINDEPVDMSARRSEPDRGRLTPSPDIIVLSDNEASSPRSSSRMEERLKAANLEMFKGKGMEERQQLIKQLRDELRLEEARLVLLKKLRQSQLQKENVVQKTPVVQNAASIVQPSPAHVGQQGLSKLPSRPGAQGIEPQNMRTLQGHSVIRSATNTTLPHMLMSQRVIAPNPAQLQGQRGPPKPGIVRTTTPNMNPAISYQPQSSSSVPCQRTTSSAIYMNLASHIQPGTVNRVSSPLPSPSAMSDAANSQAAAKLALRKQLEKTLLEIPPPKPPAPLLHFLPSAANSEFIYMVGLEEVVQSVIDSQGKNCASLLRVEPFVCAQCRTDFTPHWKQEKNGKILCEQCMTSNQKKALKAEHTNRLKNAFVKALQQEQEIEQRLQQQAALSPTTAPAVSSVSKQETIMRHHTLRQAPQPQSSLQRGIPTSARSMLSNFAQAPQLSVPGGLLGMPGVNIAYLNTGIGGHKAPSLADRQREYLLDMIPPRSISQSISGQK
UniProt Q91XD2: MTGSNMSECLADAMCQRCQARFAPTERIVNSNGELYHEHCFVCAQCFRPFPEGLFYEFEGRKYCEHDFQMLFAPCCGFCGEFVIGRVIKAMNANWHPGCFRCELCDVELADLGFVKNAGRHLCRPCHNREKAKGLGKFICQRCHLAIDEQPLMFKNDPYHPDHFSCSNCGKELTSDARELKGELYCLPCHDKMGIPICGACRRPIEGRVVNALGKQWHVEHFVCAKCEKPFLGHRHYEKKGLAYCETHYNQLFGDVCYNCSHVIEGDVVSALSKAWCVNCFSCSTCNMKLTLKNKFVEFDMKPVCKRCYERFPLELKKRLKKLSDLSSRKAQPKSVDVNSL
UniProt Q91XE8: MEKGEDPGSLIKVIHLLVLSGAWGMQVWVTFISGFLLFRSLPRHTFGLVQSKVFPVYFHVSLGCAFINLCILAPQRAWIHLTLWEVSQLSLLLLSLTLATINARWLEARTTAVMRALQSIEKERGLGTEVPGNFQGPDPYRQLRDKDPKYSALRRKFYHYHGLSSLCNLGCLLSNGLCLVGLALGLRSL

What follows are targets tested with CN[C@@H]1C[C@H]2O[C@@](C)([C@@H]1OC)n1c3ccccc3c3c4c(c5c6ccccc6n2c5c31)C(=O)NC4 [staurosporine] (assay: log2 fold change of tryptic peptide abundance, ligand vs vehicle (limited proteolysis) (log2 ratio); higher = more trypsin-susceptible (destabilized)). Conditions: ligand concentration: 20 uM; sample: mouse liver crude lysate; replicate design: treated separately.

Target | log2 fold change
UniProt Q91VN1 (peptide sequence: IHSGEKPYGCVECGK, peptide start residue: 272) | 0.275
UniProt Q91WT8 (peptide sequence: DYAFVHFTSR, peptide start residue: 282) | -0.56
UniProt Q91ZF0 (peptide sequence: NVGPVDAQVR, peptide start residue: 88) | 0.225
UniProt Q91W90 (peptide sequence: FFAPWCGHCK, peptide start residue: 198) | -0.583
UniProt Q8VI33 (peptide sequence: VGTPMSLTGQR, peptide start residue: 176) | 0.144
UniProt Q91YN5 (peptide sequence: SSHQEKVDAR, peptide start residue: 59) | -0.746
UniProt Q91YR5 (peptide sequence: LESADQLAEAVR, peptide start residue: 236) | 0.278
UniProt Q91WG0 (peptide sequence: AGVHTFLGIPFAKPPVGPLR, peptide start residue: 55) | -0.321
UniProt Q91XT4 (peptide sequence: FATIEAIQR, peptide start residue: 590) | -0.304
UniProt Q91Y97 (peptide sequence: YTPEQVAMATVTALHR, peptide start residue: 244) | -0.287
UniProt Q8VHR5 (peptide sequence: RKDLANLEVPHELPTK, peptide start residue: 51) | -1.15
UniProt Q91XD2 (peptide sequence: HLCRPCHNR, peptide start residue: 116) | -0.593
UniProt Q91XE8 (peptide sequence: HTFGLVQSK, peptide start residue: 44) | -0.419

2 records drawn at random from those above:
Target | log2 fold change
UniProt Q91YN5 (peptide sequence: SSHQEKVDAR, peptide start residue: 59) | -0.746
UniProt Q91WG0 (peptide sequence: AGVHTFLGIPFAKPPVGPLR, peptide start residue: 55) | -0.321
